Reference: patent publication US12312324B2, “Fluorine-containing substituted benzothiophene compound, and pharmaceutical composition and application thereof” (Shanghai Institute of Materia Medica, Chinese Academy of …, priority 2019, dated 2025)
Some of these results come from one statement about several compounds together. Some ranges recur; such a range may be that of the whole group of compounds.

By UniProt entry, the sequences of proteins in these tests, tags left out.
UniProt Q86WV6, whole entry R71H/G230A/H232R/R293Q: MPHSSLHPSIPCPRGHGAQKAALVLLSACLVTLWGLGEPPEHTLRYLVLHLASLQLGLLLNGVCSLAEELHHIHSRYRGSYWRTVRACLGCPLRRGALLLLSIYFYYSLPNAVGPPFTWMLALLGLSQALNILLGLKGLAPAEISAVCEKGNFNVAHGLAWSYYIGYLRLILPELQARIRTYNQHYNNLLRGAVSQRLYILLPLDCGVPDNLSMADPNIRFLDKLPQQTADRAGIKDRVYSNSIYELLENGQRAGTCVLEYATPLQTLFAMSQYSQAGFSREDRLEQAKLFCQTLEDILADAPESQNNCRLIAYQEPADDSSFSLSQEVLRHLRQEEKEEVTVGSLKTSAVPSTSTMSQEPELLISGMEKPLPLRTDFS

Biological target: human-derived interferon gene stimulating protein (Homo sapiens, UniProt Q86WV6, G230A/H232R/R293Q/R71H)
Assay: THP1-Blue-ISG reporter cell screening for activation of interferon gene stimulating protein and promotion of IFN-β expression
Conditions: 10 μM, THP1 cells, versus compound 1a

Q: How did the “enhancement of agonistic activity on interferon gene stimulating protein compared to compound 1a” value (“enhancement … compared to compound 1a” below) turn out when COc1cc2cc(C(F)(F)CCC(=O)O)sc2cc1OC [Compound S2] was run?
A: The value was 2-2.5 times.

Q: Which “enhancement … compared to compound 1a” value does the source give for COc1cc2cc(C(F)(F)CCC(=O)OC(C)C)sc2cc1OC [Compound S3] here?
A: Its value is 2-2.5 times.

Q: COc1cc2cc(C(F)(F)CCC(=O)N(O)C(F)F)sc2cc1OC [Compound S7] was tested. Which “enhancement … compared to compound 1a” value did it give?
A: Its value is 2-2.5 times.

Q: COc1cc2cc(C(F)(F)CCC(=O)N(O)Cc3ccccc3)sc2cc1OC [Compound S11] was tested. Which “enhancement … compared to compound 1a” value did it give?
A: The value was 2-2.5 times.

Q: COc1cc2cc(C(F)(F)CCC(=O)N(O)C(F)(F)c3ccccc3)sc2cc1OC [Compound S12] was tested. Which “enhancement … compared to compound 1a” value did it give?
A: The value was 2-2.5 times.

Q: How did the “enhancement … compared to compound 1a” value turn out when COc1cc2cc(C(F)(F)CCC(=O)N(O)C3CC3)sc2cc1OC [Compound S15] was run?
A: The value was 2-2.5 times.

Q: COc1cc2sc(C(F)(F)CCC(=O)O)cc2c(F)c1OC [Compound S19] was tested. Which “enhancement … compared to compound 1a” value did it give?
A: The value was 2-2.5 times.

Q: CO/C1=C(\OC)C/C(F)=c2/cc(C(F)(F)CCC(=O)N(O)C(C)C)s/c2=C/C1 [Compound S21] was tested. Which “enhancement … compared to compound 1a” value did it give?
A: The value was 2-2.5 times.

Q: How did the “enhancement … compared to compound 1a” value turn out when COc1cc2sc(C(F)(F)CCC(=O)O)cc2cc1Br [Compound S28] was run?
A: Its value is 2-2.5 times.

Q: C=Cc1cc2cc(C(F)(F)CCC(=O)O)sc2cc1OC [Compound S29] was tested. Which “enhancement … compared to compound 1a” value did it give?
A: The value was 2-2.5 times.
